From article PMC3759449
No constants are given. Whether binding was seen depends on the method and setting. Binding seen in cells or lysates may run through a third protein. Some results given as binding are weak or reduced against the parent protein; the word gives no strength.

Chains of the proteins cited; added tags and fusions are not shown. Residues count along the entry.
UniProt Q810U4, residues 30-1256: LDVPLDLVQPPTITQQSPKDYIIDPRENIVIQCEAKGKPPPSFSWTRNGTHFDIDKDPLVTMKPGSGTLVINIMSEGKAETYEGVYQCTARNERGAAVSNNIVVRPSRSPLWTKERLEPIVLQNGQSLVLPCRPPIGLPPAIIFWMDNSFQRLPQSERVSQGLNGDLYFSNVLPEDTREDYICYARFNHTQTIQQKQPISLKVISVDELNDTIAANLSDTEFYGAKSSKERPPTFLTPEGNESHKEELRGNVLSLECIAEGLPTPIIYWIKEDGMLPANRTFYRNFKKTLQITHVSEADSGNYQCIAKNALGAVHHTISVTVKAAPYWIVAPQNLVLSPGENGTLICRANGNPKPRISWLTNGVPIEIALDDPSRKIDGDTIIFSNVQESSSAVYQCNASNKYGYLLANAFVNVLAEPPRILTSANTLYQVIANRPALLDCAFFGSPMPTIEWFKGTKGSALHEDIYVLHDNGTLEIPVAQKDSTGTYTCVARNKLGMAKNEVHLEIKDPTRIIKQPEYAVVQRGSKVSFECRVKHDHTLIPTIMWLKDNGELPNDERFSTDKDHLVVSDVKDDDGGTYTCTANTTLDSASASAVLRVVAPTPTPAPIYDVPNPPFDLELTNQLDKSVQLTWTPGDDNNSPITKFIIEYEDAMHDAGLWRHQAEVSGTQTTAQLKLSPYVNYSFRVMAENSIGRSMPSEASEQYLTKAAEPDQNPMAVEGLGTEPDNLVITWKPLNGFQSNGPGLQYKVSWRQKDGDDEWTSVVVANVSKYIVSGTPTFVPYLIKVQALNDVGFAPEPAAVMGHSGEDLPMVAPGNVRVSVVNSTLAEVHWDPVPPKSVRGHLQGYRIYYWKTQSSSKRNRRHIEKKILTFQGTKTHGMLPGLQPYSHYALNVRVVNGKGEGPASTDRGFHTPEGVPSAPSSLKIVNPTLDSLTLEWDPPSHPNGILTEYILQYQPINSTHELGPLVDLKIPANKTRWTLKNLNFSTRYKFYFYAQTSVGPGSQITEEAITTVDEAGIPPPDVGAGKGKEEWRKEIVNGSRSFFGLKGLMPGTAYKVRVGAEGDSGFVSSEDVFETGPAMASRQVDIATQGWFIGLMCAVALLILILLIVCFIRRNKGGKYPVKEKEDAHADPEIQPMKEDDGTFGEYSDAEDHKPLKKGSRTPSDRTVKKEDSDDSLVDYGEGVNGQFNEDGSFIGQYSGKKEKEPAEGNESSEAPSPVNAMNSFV
UniProt Q8CBF3, residues 18-984: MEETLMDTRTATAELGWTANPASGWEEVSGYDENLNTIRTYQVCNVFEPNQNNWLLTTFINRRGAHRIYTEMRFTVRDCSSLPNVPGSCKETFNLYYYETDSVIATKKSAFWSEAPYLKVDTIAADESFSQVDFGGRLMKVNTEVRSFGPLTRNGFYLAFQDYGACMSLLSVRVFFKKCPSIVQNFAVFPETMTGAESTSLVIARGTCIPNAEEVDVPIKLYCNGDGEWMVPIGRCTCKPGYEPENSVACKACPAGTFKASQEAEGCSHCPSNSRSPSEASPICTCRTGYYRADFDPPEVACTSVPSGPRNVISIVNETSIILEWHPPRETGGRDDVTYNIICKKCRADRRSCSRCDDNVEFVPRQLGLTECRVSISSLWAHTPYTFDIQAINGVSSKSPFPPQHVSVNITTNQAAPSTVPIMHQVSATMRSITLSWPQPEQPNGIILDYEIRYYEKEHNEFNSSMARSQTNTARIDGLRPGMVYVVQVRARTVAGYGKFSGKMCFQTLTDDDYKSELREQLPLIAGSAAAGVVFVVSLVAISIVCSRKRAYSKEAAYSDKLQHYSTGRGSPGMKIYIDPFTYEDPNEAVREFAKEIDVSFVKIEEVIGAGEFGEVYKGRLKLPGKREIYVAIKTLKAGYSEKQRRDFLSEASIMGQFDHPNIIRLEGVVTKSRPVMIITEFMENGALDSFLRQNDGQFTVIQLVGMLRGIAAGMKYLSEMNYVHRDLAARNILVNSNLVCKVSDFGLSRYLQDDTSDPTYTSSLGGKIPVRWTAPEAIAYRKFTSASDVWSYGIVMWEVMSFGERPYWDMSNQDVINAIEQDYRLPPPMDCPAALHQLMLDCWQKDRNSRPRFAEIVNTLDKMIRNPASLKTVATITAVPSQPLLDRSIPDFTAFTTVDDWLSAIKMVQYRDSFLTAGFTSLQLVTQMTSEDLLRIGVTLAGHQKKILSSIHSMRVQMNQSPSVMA
UniProt P54763, residues 19-986: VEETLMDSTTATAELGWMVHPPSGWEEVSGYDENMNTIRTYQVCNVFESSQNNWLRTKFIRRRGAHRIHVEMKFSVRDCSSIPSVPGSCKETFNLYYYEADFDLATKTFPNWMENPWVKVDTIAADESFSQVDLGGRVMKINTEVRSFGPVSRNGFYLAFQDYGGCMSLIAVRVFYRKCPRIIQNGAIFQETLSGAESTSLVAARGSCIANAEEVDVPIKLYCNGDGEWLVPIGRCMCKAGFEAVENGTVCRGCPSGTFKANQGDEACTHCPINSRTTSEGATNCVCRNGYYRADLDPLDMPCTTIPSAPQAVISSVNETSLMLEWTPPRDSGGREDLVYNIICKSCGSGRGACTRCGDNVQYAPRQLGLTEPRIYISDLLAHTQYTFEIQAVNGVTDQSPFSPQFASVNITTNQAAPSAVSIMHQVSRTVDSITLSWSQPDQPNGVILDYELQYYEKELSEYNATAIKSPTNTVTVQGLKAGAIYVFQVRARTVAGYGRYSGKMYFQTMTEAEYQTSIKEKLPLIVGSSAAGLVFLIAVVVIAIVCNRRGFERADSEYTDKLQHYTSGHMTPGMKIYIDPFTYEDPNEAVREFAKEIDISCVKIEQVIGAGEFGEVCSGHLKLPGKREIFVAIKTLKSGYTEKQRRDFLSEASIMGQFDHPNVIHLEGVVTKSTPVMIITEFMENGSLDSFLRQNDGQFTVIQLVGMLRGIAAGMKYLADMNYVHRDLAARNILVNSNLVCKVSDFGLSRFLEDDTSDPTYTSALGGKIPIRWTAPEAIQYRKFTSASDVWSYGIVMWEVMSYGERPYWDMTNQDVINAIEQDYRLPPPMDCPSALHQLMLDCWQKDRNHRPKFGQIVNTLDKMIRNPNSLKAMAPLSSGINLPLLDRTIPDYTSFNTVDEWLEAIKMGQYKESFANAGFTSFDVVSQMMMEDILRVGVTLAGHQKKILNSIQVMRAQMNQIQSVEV
UniProt P54754, residues 30-993: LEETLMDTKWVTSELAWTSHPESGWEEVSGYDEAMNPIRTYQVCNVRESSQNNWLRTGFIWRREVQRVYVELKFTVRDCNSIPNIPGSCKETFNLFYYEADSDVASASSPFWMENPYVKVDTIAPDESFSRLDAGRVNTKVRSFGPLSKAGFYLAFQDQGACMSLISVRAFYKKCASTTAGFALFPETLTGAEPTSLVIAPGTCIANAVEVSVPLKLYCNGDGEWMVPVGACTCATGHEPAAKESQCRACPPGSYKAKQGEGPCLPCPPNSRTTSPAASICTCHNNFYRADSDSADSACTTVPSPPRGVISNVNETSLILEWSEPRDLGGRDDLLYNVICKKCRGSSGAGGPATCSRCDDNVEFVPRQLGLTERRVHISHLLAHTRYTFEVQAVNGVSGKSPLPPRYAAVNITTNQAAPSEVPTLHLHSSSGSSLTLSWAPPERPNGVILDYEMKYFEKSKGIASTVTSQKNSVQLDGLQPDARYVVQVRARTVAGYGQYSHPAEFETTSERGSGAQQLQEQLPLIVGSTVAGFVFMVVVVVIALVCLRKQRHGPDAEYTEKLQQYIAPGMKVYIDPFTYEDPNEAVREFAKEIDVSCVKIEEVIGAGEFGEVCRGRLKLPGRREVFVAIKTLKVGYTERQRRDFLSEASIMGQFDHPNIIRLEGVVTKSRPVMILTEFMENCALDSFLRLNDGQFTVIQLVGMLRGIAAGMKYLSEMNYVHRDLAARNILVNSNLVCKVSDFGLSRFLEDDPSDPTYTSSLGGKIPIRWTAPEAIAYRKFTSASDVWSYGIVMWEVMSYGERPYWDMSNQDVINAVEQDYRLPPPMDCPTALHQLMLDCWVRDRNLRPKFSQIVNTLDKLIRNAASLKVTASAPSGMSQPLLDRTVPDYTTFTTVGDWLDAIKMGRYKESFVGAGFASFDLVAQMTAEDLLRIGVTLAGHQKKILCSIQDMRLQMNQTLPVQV

Each substance was assayed against NrCAM (Neuron-glial related cell adhesion molecule), mouse (mouse) (UniProt Q810U4) (assay: co-IP; RIPA lysates (500 ug) of co-transfected HEK293T cells immunoprecipitated with rabbit anti-NrCAM (Abcam ab24344) for 2 h at 4°C, protein A/G-Sepharose, RIPA washes; blots reprobed with anti-EphB2 or anti-HA).

| Substance | binding |
| --- | --- |
| EphB1 with a hemagglutinin epitope (HA) tag, mouse (from UniProt Q8CBF3 18-984) (receptor) | binds |
| EphB2 (not HA-tagged) (from UniProt P54763 19-986) (receptor) | binds |
| EphB3 with HA tag, mouse (from UniProt P54754 30-993) (receptor) | binds |
